Assay results: the supplement of paper PMC10849652
The list shows a part of the results. Residues, ends and D or L forms follow the SMILES beside them. *: point of attachment. Cbz = O=C(OCc1ccccc1)*

Sequences of proteins named here, by UniProt entry; tags and fusion partners are left off. A change or cut given only in a name is not applied to a line headed by its entry.
UniProt Q13686: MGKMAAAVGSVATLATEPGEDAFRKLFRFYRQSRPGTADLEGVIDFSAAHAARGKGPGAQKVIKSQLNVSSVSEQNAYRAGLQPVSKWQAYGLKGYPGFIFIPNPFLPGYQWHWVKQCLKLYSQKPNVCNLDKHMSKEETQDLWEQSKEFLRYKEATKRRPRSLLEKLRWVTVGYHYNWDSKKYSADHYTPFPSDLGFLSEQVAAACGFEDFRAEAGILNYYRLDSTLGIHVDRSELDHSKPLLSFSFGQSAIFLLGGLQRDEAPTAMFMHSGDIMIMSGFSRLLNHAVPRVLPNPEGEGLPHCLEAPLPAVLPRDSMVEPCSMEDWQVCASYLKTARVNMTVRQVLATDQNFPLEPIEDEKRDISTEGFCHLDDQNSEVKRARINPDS
UniProt Q9UEY8: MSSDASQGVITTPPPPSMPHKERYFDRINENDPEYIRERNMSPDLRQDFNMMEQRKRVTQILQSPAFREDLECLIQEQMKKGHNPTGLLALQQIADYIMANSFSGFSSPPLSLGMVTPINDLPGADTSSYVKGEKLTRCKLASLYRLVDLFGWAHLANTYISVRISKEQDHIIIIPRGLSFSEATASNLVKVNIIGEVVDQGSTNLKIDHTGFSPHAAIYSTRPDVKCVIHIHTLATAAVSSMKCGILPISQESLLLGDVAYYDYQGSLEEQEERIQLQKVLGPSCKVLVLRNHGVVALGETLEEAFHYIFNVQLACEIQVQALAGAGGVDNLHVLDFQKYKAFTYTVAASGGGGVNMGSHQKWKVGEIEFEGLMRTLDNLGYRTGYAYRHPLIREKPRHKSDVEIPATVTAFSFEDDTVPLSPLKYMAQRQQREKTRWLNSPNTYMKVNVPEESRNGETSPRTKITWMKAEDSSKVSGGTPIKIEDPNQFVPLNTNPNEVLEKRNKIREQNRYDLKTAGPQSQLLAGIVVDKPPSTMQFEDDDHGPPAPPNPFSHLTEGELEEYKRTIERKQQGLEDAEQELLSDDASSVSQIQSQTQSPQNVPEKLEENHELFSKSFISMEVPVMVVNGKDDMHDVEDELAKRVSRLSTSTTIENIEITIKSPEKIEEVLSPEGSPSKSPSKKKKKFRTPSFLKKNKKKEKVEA
UniProt Q9BQI0: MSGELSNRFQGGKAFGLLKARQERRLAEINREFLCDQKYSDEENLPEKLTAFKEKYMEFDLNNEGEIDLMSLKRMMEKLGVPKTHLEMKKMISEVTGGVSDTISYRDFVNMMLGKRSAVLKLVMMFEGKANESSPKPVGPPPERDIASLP
UniProt Q99996, whole entry, looked up: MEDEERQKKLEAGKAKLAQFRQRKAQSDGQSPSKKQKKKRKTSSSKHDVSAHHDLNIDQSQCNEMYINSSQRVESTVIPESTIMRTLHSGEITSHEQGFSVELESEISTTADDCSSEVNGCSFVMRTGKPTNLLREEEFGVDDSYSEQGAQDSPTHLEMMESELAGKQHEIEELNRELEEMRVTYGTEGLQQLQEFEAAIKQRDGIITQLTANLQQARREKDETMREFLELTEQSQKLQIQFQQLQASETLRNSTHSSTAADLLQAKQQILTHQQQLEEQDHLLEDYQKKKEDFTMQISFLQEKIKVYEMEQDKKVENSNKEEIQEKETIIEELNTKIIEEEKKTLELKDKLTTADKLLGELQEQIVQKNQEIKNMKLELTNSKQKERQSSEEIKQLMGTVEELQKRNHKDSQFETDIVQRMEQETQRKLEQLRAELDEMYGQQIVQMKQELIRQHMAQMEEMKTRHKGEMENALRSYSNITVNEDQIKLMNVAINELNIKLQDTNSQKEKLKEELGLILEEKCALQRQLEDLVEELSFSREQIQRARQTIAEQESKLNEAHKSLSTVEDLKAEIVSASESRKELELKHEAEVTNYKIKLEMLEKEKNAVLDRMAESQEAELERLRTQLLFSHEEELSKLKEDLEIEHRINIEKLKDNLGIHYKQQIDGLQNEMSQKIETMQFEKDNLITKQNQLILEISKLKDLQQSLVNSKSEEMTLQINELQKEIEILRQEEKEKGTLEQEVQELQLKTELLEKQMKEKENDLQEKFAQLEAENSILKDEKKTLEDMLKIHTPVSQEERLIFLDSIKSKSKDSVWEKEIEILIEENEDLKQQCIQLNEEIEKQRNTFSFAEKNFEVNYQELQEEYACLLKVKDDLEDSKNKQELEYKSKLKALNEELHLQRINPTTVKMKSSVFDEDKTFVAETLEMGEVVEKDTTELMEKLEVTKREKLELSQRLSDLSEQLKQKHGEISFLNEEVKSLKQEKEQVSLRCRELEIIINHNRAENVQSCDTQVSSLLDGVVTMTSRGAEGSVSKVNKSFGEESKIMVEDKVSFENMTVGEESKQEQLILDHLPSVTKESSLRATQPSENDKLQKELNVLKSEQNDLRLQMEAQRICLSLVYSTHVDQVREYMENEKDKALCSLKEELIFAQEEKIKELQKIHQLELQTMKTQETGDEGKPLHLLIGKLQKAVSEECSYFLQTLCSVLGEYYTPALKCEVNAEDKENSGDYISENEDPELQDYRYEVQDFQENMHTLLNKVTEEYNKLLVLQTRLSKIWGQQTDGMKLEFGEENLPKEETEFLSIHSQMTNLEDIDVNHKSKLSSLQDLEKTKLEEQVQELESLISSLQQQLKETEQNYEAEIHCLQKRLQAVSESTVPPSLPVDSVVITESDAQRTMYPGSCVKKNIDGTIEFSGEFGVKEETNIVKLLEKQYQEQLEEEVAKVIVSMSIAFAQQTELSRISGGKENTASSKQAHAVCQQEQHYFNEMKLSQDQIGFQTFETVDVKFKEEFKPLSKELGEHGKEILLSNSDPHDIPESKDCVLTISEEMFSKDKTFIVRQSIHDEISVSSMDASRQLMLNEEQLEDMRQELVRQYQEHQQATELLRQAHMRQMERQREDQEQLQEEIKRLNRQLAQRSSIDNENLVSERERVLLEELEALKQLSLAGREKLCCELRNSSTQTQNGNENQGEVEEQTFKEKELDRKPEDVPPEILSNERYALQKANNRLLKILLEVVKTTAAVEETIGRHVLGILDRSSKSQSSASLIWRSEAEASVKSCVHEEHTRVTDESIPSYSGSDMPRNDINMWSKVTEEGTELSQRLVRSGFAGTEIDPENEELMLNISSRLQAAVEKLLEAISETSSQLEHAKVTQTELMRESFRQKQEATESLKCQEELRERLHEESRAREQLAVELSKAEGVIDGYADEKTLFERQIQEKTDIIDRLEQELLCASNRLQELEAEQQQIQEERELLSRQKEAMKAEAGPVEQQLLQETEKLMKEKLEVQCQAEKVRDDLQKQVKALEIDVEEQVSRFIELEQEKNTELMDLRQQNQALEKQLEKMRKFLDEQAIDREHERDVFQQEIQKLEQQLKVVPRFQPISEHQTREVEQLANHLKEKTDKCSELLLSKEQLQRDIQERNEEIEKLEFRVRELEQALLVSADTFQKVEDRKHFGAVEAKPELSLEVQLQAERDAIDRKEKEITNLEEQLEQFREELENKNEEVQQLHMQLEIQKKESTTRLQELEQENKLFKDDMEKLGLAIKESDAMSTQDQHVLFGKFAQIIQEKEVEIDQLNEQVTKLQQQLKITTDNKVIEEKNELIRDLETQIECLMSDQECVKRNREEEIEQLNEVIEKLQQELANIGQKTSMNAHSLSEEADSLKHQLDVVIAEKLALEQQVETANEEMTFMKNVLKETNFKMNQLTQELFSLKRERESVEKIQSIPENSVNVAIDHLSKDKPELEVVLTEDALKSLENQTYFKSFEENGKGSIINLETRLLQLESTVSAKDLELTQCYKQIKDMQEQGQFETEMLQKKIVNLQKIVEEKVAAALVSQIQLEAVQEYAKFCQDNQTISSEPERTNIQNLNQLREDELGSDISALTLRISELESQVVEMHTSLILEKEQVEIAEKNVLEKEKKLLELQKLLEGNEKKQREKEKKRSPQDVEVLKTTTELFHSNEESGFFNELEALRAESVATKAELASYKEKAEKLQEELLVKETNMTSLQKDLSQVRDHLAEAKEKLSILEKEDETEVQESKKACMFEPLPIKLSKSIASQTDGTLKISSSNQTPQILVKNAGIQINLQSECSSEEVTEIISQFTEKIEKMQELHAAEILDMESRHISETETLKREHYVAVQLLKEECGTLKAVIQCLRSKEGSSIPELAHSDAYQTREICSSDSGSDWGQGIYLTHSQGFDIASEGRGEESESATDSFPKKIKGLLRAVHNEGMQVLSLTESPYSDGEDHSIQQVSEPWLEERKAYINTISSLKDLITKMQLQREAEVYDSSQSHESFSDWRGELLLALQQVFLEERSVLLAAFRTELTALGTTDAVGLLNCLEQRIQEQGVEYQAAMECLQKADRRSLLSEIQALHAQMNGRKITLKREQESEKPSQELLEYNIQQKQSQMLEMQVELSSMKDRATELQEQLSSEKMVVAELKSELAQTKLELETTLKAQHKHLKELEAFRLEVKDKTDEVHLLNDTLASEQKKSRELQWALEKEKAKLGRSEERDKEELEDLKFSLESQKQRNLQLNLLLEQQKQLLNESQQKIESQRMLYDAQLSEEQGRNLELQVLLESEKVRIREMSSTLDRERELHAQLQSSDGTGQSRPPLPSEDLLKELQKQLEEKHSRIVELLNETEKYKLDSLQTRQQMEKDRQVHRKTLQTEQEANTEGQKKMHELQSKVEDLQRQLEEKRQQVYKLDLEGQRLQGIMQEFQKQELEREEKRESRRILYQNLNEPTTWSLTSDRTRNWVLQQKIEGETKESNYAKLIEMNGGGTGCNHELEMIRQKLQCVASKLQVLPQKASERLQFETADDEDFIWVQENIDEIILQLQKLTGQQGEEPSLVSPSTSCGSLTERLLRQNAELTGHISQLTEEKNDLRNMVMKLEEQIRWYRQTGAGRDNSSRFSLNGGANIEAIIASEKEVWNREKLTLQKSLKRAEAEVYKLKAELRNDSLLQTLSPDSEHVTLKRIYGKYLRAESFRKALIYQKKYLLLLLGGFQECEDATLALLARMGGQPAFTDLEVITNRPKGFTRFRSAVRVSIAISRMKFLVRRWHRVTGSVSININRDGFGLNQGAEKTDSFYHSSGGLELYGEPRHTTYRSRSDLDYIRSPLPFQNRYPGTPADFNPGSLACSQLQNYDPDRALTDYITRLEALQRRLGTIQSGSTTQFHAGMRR
UniProt P49189: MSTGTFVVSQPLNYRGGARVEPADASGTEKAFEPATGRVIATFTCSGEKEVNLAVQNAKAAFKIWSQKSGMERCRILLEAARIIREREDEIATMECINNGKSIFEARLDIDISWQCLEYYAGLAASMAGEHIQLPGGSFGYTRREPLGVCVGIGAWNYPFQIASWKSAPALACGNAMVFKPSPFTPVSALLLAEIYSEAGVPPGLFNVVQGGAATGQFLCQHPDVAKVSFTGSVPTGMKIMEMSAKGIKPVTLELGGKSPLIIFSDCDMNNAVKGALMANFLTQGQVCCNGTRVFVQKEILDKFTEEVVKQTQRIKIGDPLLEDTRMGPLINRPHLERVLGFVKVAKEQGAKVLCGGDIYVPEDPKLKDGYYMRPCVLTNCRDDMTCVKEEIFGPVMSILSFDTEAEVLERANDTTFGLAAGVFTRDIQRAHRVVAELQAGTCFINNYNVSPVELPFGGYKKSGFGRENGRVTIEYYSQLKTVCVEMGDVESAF
UniProt P20933: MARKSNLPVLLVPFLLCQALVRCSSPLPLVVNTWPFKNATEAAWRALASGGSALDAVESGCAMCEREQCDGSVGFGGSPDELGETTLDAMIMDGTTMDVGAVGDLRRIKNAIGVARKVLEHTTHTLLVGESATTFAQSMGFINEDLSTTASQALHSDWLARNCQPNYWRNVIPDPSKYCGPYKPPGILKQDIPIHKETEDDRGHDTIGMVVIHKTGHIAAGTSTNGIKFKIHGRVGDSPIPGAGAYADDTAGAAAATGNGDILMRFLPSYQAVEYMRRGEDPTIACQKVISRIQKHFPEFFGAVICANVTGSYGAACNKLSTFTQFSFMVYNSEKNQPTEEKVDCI
UniProt Q9NRZ5: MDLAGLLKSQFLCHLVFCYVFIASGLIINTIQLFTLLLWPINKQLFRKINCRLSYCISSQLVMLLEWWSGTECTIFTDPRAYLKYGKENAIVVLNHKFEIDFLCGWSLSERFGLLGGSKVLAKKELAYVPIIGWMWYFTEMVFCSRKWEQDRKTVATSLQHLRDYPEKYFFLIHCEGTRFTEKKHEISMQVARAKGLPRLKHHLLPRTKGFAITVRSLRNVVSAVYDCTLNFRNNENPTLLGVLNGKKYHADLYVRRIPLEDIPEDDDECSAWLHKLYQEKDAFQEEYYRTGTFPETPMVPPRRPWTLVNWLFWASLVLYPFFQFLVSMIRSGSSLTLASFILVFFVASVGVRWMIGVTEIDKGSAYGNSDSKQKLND

Columns and labels:
Assay in all cases: log2 fold change, soluble protein after heating vs DMSO (PISA); higher = thermal stabilisation; K562 cells, 10 uM, 30 min; active = over 0.2 and 3.5 SD of the protein, either way, in both replicates (recomputed)
IRAK-1-4 Inhibitor I = compound: C1COCCN1CCN2C3=CC=CC=C3N=C2NC(=O)C4=CC(=CC=C4)[N+](=O)[O-] [IRAK-1-4 Inhibitor I]
How it was run: (§1)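 K562 cells at 2×10^6 cells/mL were exposed to 10 μM compound for 30 min, then aliquots were heated for 3 min across 48°C-58°C, pooled, and extracted in PBS containing 0.5% NP-40 at 4°C. The supernatant after 21,000xg for 90 min was taken as soluble protein and measured by TMTpro 16plex LC-MS/MS with channel sums equalised. Thermal stability is reported relative to control samples, with values from duplicates. Fold changes are given on a log2 scale.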

ibrutinib = compound: C=CC(=O)N1CCC[C@@H](n2nc(-c3ccc(Oc4ccccc4)cc3)c3c(N)ncnc32)C1 [ibrutinib]
How it was run: as §1

[1] = compound: CC(=O)c1cnc2ccc(-c3cc(Cl)c(O)c(Cl)c3)nc2c1N[C@H]1CC[C@H](CN(C)C)CC1
How it was run: as §1

ralimetinib = compound: CC(C)(C)Cn1c(N)nc2ccc(-c3[nH]c(C(C)(C)C)nc3-c3ccc(F)cc3)nc21 [ralimetinib]
How it was run: as §1

[2] = compound: CC(C)(O)CC(=O)NCCn1ccc2ncnc(Nc3ccc(Oc4cccc(C(F)(F)F)c4)c(Cl)c3)c21
How it was run: as §1

[3] = compound: CC(C)C[C@@H](C=O)NC(=O)[C@H](CC(C)C)NC(=O)[C@H](CC(C)C)NC(=O)OCc1ccccc1
How it was run: as §1

pinometostat = compound: CC(C)N(C[C@H]1O[C@@H](n2cnc3c(N)ncnc32)[C@H](O)[C@@H]1O)[C@H]1C[C@@H](CCc2nc3cc(C(C)(C)C)ccc3[nH]2)C1 [pinometostat]
How it was run: as §1

[4] = compound: CC1=C(C(CC(=O)N1)C2=CC=C(C=C2)C(F)(F)F)C(=O)NC3=C(C=C4C(=C3)C=NN4)F
How it was run: as §1

[5] = compound: CC1=C(C2=C(C=C1)C(=O)C3=CC=CC=C3N2CCCN)C
How it was run: as §1

[6] = compound: CC1=C(C=C(C=C1)NC(=O)C2=CC(=CC=C2)N(C)C)NC(=O)C3=CC=C(C=C3)O
How it was run: as §1

[7] = compound: CC1=CC=C(C=C1)SC2=C3C=C(SC3=CN=C2)C(=O)N
How it was run: as §1

[8] = compound: CC1=NC(=CC=C1)C2=C(N=C(N2)C(C)(C)C)C3=CC4=NC=CN=C4C=C3
How it was run: as §1

Nexturastat A = compound: CCCCN(Cc1ccc(C(=O)NO)cc1)C(=O)Nc1ccccc1 [Nexturastat A]
How it was run: as §1

vemurafenib = compound: CCCS(=O)(=O)Nc1ccc(F)c(C(=O)c2c[nH]c3ncc(-c4ccc(Cl)cc4)cc23)c1F [vemurafenib]
How it was run: as §1

[9] = compound: CCCS(=O)(=O)Nc1ccc(F)c(C(=O)c2c[nH]c3ncc(Cl)cc23)c1F
How it was run: as §1

barasertib = compound: CCN(CCCOc1ccc2c(Nc3cc(CC(=O)Nc4cccc(F)c4)[nH]n3)ncnc2c1)CCOP(=O)(O)O [barasertib]
How it was run: as §1

[10] = compound: CC(C)C1=C2N=C(C=C(N2N=C1)NCC3=CC=CC=C3)NCCCCCCN
How it was run: as §1

[11] = compound: CCCc1cc(C)[nH]c(=O)c1CNC(=O)c1cc(-c2ccnc(N3CCN(C)CC3)c2)cc2c1cnn2C(C)C
How it was run: as §1

givinostat = compound: CCN(CC)Cc1ccc2cc(COC(=O)Nc3ccc(C(=O)NO)cc3)ccc2c1 [givinostat]
How it was run: as §1

[12] = compound: CC1=C(C=C(C=C1)NC(=O)C2=CC(=CC=C2)C(C)(C)C#N)NC3=CC4=C(C=C3)N=CN(C4=O)C
How it was run: as §1

Measured: log2 fold change

ALKBH1 (UniProt Q13686)
inactive: IRAK-1-4 Inhibitor I 0.041 | ibrutinib 0.001 | [1] -0.214 | ralimetinib 0.162 | [2] -0.021 | [3] 0.014 | pinometostat 0.015 | [4] -0.004 | [5] 0.06 | [6] 0.122 | [7] 0.041 | [8] -0.179 | Nexturastat A -0.085 | vemurafenib 0.012 | [9] -0.041 | barasertib 0.001

AFF1 isoform 2 (UniProt P51825)
inactive: IRAK-1-4 Inhibitor I -0.17 | ibrutinib -0.009 | [1] 0.027 | [2] 0.036 | [10] 0.183 | pinometostat 0.161 | [4] 0.158 | [7] -0.171 | [8] 0.02 | Nexturastat A 0.253 | vemurafenib -0.086 | [9] -0.074 | [11] -0.109 | givinostat 0.088 | barasertib -0.078

ALG12 (UniProt Q9BV10)
inactive: IRAK-1-4 Inhibitor I 0.036 | ibrutinib 0.054 | [1] -0.05 | [2] 0.041 | [10] 0.065 | pinometostat -0.013 | [5] -0.113 | [12] -0.015 | [7] 0.024 | [8] -0.072 | Nexturastat A -0.014 | vemurafenib -0.008 | [9] 0.049 | [11] -0.032 | givinostat 0.099 | barasertib 0.059

ALDOA (UniProt P04075)
inactive: ibrutinib 0.14 | [1] 0.003 | ralimetinib -0.13 | [10] -0.139 | [3] 0.142 | [4] 0 | [5] 0.085 | [12] -0.096 | [6] 0.038 | [7] -0.025 | vemurafenib 0.008 | [9] -0.077 | [11] 0.07 | givinostat -0.148 | barasertib -0.124

ADD3 isoform 2 (UniProt Q9UEY8)
inactive: IRAK-1-4 Inhibitor I 0.008 | [1] -0.433 | ralimetinib -0.015 | [2] 0.005 | [3] 0.009 | pinometostat 0.108 | [5] -0.063 | [12] 0.034 | [6] -0.021 | [7] -0.08 | [8] -0.017 | Nexturastat A -0.029 | vemurafenib 0.059 | [9] 0.014 | [11] -0.017

AIF1L isoform 2 (UniProt Q9BQI0)
inactive: ibrutinib 0.014 | [1] -0.029 | ralimetinib -0.024 | [2] -0.197 | [10] -0.017 | [3] 0.009 | [4] -0.082 | [6] -0.015 | [7] 0 | Nexturastat A -0.307 | vemurafenib 0.075 | [9] -0.02 | [11] -0.049 | givinostat -0.057 | barasertib 0.021

AGTPBP1 isoform 3 (UniProt Q9UPW5)
inactive: IRAK-1-4 Inhibitor I 0.046 | ralimetinib 0.101 | [3] -0.009 | pinometostat -0.034 | [6] 0 | [8] 0.027 | vemurafenib 0.121 | [11] 0.21

ADGRV1 (UniProt Q8WXG9)
inactive: IRAK-1-4 Inhibitor I -0.08 | ibrutinib -0.111 | [2] 0.018 | pinometostat 0.107 | [4] 0.119 | [12] -0.001 | [8] 0 | Nexturastat A -0.039 | [11] -0.076 | barasertib 0.032

ALDOC (UniProt J3QKP5)
inactive: IRAK-1-4 Inhibitor I 0.014 | ibrutinib 0.205 | [1] -0.185 | ralimetinib -0.091 | [2] 0.001 | [3] 0.23 | pinometostat 0.045 | [4] 0.147 | [5] 0.155 | [12] -0.203 | [6] 0.018 | [7] -0.139 | [8] -0.402 | Nexturastat A 0.157 | vemurafenib -0.456 | [9] -0.181 | [11] -0.051 | barasertib 0.13

AKAP9 isoform 6 (UniProt Q99996)
inactive: IRAK-1-4 Inhibitor I -0.407 | ralimetinib 0.184 | [2] 0.151 | [3] 0.097 | pinometostat 0.491 | [4] -0.083 | [6] 0.203 | [8] -0.408 | Nexturastat A 0.547 | [11] -0.137

ALDH9A1 (UniProt P49189)
inactive: ibrutinib -0.008 | [1] -0.024 | ralimetinib -0.077 | [2] 0 | [10] -0.27 | [3] 0.185 | [5] -0.035 | [12] 0.004 | [6] 0.004 | [7] -0.015 | Nexturastat A -0.125 | vemurafenib 0.026 | [9] 0.005 | [11] 0.18 | givinostat 0.058 | barasertib 0.05

AFDN isoform 1 (UniProt P55196)
inactive: IRAK-1-4 Inhibitor I -0.046 | ibrutinib -0.015 | [1] -0.102 | ralimetinib -0.12 | [2] -0.048 | [10] -0.001 | [3] 0.002 | pinometostat -0.072 | [12] 0.035 | [6] 0.083 | [8] 0.03 | Nexturastat A -0.164 | vemurafenib 0.342 | [11] 0.062 | givinostat 0.259 | barasertib -0.045

AMDHD2 (UniProt Q9Y303)
inactive: [10] -0.002 | [5] -0.011 | [12] 0.058 | [7] -0.08 | vemurafenib -0.012 | [9] -0.085 | givinostat -0.16

AGA (UniProt P20933)
inactive: ibrutinib -0.075 | [10] 0.02 | [7] -0.198 | [9] -0.366 | [11] 0.018 | givinostat -0.063 | barasertib 0.042

AGPAT4 (UniProt Q9NRZ5)
inactive: ibrutinib -0.002 | ralimetinib 0.016 | [10] -0.122 | [3] 0.039 | [4] 0.105 | [5] -0.059 | [12] 0.059 | [6] 0.067 | [7] -0.003 | [9] 0.09 | [11] -0.213 | givinostat -0.043 | barasertib -0.034

Reprinted from the listing (four entries):
AKAP9 isoform 6 (UniProt Q99996)
inactive: IRAK-1-4 Inhibitor I -0.407 | ralimetinib 0.184 | [2] 0.151 | [3] 0.097 | pinometostat 0.491 | [4] -0.083 | [6] 0.203 | [8] -0.408 | Nexturastat A 0.547 | [11] -0.137

ALDH9A1 (UniProt P49189)
inactive: ibrutinib -0.008 | [1] -0.024 | ralimetinib -0.077 | [2] 0 | [10] -0.27 | [3] 0.185 | [5] -0.035 | [12] 0.004 | [6] 0.004 | [7] -0.015 | Nexturastat A -0.125 | vemurafenib 0.026 | [9] 0.005 | [11] 0.18 | givinostat 0.058 | barasertib 0.05

AFDN isoform 1 (UniProt P55196)
inactive: IRAK-1-4 Inhibitor I -0.046 | ibrutinib -0.015 | [1] -0.102 | ralimetinib -0.12 | [2] -0.048 | [10] -0.001 | [3] 0.002 | pinometostat -0.072 | [12] 0.035 | [6] 0.083 | [8] 0.03 | Nexturastat A -0.164 | vemurafenib 0.342 | [11] 0.062 | givinostat 0.259 | barasertib -0.045

AMDHD2 (UniProt Q9Y303)
inactive: [10] -0.002 | [5] -0.011 | [12] 0.058 | [7] -0.08 | vemurafenib -0.012 | [9] -0.085 | givinostat -0.16
